Data as given in PubChem BioAssay AID1508597 (Cure First, 2020)

Purpose: 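Genes whose silencing sensitises or protects ovarian cancer cells against rucaparib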 (primary screen)
Cells: human ovarian carcinoma lines grown from tumours: OCI-P5x (papillary serous) and OCI-C5x (clear cell)
Reagents: siRNA pool against human genes, 1.25 pmol siRNA per well
Time to read-out: 72 h or 96 h, depending on the cell culture
Challenge: rucaparib 20 µM (about IC30) or vehicle, present until read-out
Rucaparib or vehicle: Vehicle
Cell line: OCI-C5x (clear cell)
Read-out: 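Luminescent ATP-based viability assay read 72 or 96 h after transfection, depending on culture, given as normalised percent viability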
Scale: viability, normalised: higher = more viable cells remaining
Call rule: 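a well counts as a hit if its normalised viability is under 80 percent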
Calls: active = viability under 80%; inactive = viability 80% or more
Shown is a random part of the about 2,100 reagents, in one setting of the screen. 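Calls flag viability under 80% in either arm, not effects specific to rucaparib; the reference for percent is not stated.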 Entries without a mark were called inactive. Some reagents were tested in more than one well and are listed for each. No sequences are given here. Not stated in the record: the 100% reference.

Which result is listed for CHAF1A (chromatin assembly factor 1 subunit A), technical replicate 1?
viability, normalised (%): 49.9 (active)

What is on record for CHAF1A (chromatin assembly factor 1 subunit A), technical replicate 1?
viability, normalised (%): 33.6 (active)

With CHAF1A (chromatin assembly factor 1 subunit A), technical replicate 2, how do the results read?
viability, normalised (%): 42.2 (active)

What did the screen give for CHAF1A (chromatin assembly factor 1 subunit A), technical replicate 2?
viability, normalised (%): 37.3 (active)

What is on record for CHAF1A (chromatin assembly factor 1 subunit A), technical replicate 3?
viability, normalised (%): 48.1 (active)

What is on record for CHAF1A (chromatin assembly factor 1 subunit A), technical replicate 3?
viability, normalised (%): 27.3 (active)

What is on record for MECP2 (methyl-CpG binding protein 2), technical replicate 1?
viability, normalised (%): 45.2 (active)

Which result is listed for MECP2 (methyl-CpG binding protein 2), technical replicate 2?
viability, normalised (%): 61.9 (active)

How did the screen score MECP2 (methyl-CpG binding protein 2), technical replicate 3?
viability, normalised (%): 46.5 (active)

With ENPP6 (ectonucleotide pyrophosphatase/phosphodiesterase 6), technical replicate 1, how do the results read?
viability, normalised (%): 63.9 (active)

For ENPP6 (ectonucleotide pyrophosphatase/phosphodiesterase 6), technical replicate 2, how do the results read?
viability, normalised (%): 64.2 (active)

For ENPP6 (ectonucleotide pyrophosphatase/phosphodiesterase 6), technical replicate 3, what does the deposit list?
viability, normalised (%): 70.3 (active)

Reprinted from the entries so far (3 entries):
CHAF1A (chromatin assembly factor 1 subunit A), technical replicate 1 | viability, normalised (%) = 33.6 (active)
CHAF1A (chromatin assembly factor 1 subunit A), technical replicate 2 | viability, normalised (%) = 42.2 (active)
CHAF1A (chromatin assembly factor 1 subunit A), technical replicate 2 | viability, normalised (%) = 37.3 (active)

The list goes on.
How did the screen score RAD54B (RAD54 homolog B), technical replicate 1?
viability, normalised (%): 48.9 (active)

For RAD54B (RAD54 homolog B), technical replicate 1, what does the deposit list?
viability, normalised (%): 53.9 (active)

With RAD54B (RAD54 homolog B), technical replicate 2, how do the results read?
viability, normalised (%): 43.5 (active)

How did the screen score RAD54B (RAD54 homolog B), technical replicate 2?
viability, normalised (%): 76 (active)

For RAD54B (RAD54 homolog B), technical replicate 3, what was measured?
viability, normalised (%): 49 (active)

With RAD54B (RAD54 homolog B), technical replicate 3, what does the deposit list?
viability, normalised (%): 57 (active)

What did the screen give for TREX2 (three prime repair exonuclease 2), technical replicate 1?
viability, normalised (%): 59.3 (active)

For TREX2 (three prime repair exonuclease 2), technical replicate 2, what was measured?
viability, normalised (%): 34.9 (active)

With TREX2 (three prime repair exonuclease 2), technical replicate 3, what does the deposit list?
viability, normalised (%): 54.9 (active)

For EID1 (EP300 interacting inhibitor of differentiation 1), technical replicate 1, what was measured?
viability, normalised (%): 64.5 (active)

What is on record for EID1 (EP300 interacting inhibitor of differentiation 1), technical replicate 2?
viability, normalised (%): 80.6

What did the screen give for EID1 (EP300 interacting inhibitor of differentiation 1), technical replicate 3?
viability, normalised (%): 70.2 (active)

How did the screen score MED10 (mediator complex subunit 10), technical replicate 1?
viability, normalised (%): 58.2 (active)

What is on record for MED10 (mediator complex subunit 10), technical replicate 2?
viability, normalised (%): 57.8 (active)

What is on record for MED10 (mediator complex subunit 10), technical replicate 3?
viability, normalised (%): 62.5 (active)

Which result is listed for EYA3 (EYA transcriptional coactivator and phosphatase 3), technical replicate 1?
viability, normalised (%): 52.4 (active)

What is on record for EYA3 (EYA transcriptional coactivator and phosphatase 3), technical replicate 2?
viability, normalised (%): 42.2 (active)

What is on record for EYA3 (EYA transcriptional coactivator and phosphatase 3), technical replicate 3?
viability, normalised (%): 60.8 (active)

For TBL1X (transducin beta like 1 X-linked), technical replicate 1, what was measured?
viability, normalised (%): 60.6 (active)

For TBL1X (transducin beta like 1 X-linked), technical replicate 2, how do the results read?
viability, normalised (%): 35.8 (active)

For TBL1X (transducin beta like 1 X-linked), technical replicate 3, what was measured?
viability, normalised (%): 42.2 (active)
